The exact form of at least one protein or probe is not confirmed. A negative result means that nothing was seen under these conditions. For some assays here: At least one verdict was read from the data and is not stated in words by the source. For some assays here: Weaker means in comparison with the reference protein, sequence or condition of that experiment.
molecular target: GST-OsARF18 (Oryza sativa (rice)) (UniProt Q653H7); experiment: EMSA; details: Pierce LightShift chemiluminescent EMSA kit (20148), manufacturer's protocol; pH and temperature not stated; recombinant protein; protein details: GST (N-terminal); label: 5'-biotin

Protein sequences, listed by entry. Tags and fused reporters are not part of them. Lines headed by an entry give the natural chain unless they say otherwise; changes in a name come on top.
UniProt Q653H7: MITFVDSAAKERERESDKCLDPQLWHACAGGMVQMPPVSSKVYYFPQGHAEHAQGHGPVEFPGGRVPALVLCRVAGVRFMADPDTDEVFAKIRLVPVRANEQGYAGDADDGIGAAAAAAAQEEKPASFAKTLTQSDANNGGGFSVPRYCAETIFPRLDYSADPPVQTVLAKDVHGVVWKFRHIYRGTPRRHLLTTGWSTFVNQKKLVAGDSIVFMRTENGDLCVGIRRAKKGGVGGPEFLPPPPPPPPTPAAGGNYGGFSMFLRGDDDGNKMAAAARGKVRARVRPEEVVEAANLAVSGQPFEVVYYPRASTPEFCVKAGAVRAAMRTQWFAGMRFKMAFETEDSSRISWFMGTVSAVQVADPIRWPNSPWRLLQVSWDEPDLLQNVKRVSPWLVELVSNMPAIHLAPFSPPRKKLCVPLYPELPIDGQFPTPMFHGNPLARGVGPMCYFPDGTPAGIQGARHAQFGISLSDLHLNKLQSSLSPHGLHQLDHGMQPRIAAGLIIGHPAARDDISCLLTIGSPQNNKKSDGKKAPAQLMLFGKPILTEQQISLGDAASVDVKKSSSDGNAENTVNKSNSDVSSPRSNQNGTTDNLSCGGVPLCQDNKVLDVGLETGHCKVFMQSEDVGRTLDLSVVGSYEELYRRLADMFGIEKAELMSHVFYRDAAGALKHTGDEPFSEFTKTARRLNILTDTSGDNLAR

Sequence	binding result
CAGGTCTCGTTGGTCGCCGACAACGAGGTGCGTTTGCGTGCGTGCTGATCCAAAAATGGGATGAATATCTTTGACATTC (double strand) [EA1 of Fig. 4C (AuxRE1+AuxRE2; EMSA-OsARF2-1)]	binds
CAGGTCTCGTTGGTCGCCGACAACGAGGTGCGTTTGCGTGCGTGCTGATCCAAAAATGGGATGAATATCTTTGTCTTTC (double strand) [EMSA-OsARF2-2M (AuxRE2 mutated)]	no binding
TGCTTCGCCTCTCTCGCTCGTCTCTCCAAACACAAACCCACCACCTCCTCCTCCTCCTCC (double strand) [ES2 (OsSUT1 promoter, SuRE2)]	binds

same assay, conditions: Pierce LightShift chemiluminescent EMSA kit (20148), manufacturer's protocol; pH and temperature not stated; recombinant protein; protein details: GST (N-terminal); label: 5'-biotin; letters put together from the description

Sequence	binding result
CAGGTCTCGTTGGTCGCCGTCTACGAGGTGCGTTTGCGTGCGTGCTGATCCAAAAATGGGATGAATATCTTTGACATTC (double strand) [EMSA-OsARF2-1M (AuxRE1 mutated)]	binds

test system: GST-OsARF2 (Oryza sativa (rice)); experiment: EMSA; details: Pierce LightShift chemiluminescent EMSA kit (20148), manufacturer's protocol; pH and temperature not stated; recombinant protein; protein details: GST (N-terminal); label: 5'-biotin

Sequence	binding result
AAATTGTCACTGTCGCGGTACTGAATTATTCAGACAAT (double strand) [ES8 (AuxRE)]	no binding
AGAAGCTCGGCAAGCGTGTCGCTAATCCGATACTAACTCC (double strand) [ES4 (AuxRE)]	no binding
CAATGTCAAAACCGCGGCATCATATCTCCATTGACGT (double strand) [ES7 (AuxRE)]	no binding
CTCCTCCTCCTACATCTCCGCCGCTCCTCACTTCCTCCACTCGATTTCCTTTCTTGGCC (double strand) [ES1-1A]	binds more weakly
CTCCTCCTCCTACGTCACCGCCGCTCCTCACTTCCTCCACTCGATTTCCTTTCTTGGCC (double strand) [ES1-4A]	binds more weakly
CTCCTCCTCCTACGTCTACGCCGCTCCTCACTTCCTCCACTCGATTTCCTTTCTTGGCC (double strand) [ES1-5A]	binds more weakly
CTCCTCCTCCTACGTCTCCGCCGCTCCTCACTTCCTCCACTCGATTTCCTTTCTTGGCCT (double strand) [ES1 (OsSUT1 promoter, SuRE1)]	binds
CTCCTCCTCTGACACAGGGGTGTGCAGGTTTGTGTTTGTGCGTGGCGCGTCCGCC (double strand) [ES3 (AuxRE)]	no binding
CTCTGCCGCCTACGAGAGACACCCCCACCCCCCCCCCCCC (double strand) [EA2 (SuRE2 of OsARF2 promoter)]	binds
TCATTTACTCCGCTGGTCTCTCTTCTCCTATTCACTC (double strand) [EA7 (SuRE7 of OsARF2 promoter)]	binds
TGCTTCGCCTCTCTCGCTCGTCTCTCCAAACACAAACCCACCACCTCCTCCTCCTCCTCC (double strand) [ES2 (OsSUT1 promoter, SuRE2)]	binds
TTTGGATAACTACTCGACAGTACAAACGAATTA (double strand) [ES5 (AuxRE)]	no binding

same assay, conditions: reduced or abolished; Pierce LightShift chemiluminescent EMSA kit (20148), manufacturer's protocol; pH and temperature not stated; recombinant protein; protein details: GST (N-terminal); label: 5'-biotin

Sequence	binding result
CTCCTCCTCCTACCGCCGCTCCTCACTTCCTCCACTCGATTTCCTTTCTTGGCC (double strand) [ES1-Del]	binds more weakly
